Results: publication PMC7594058
No constants are given. Whether binding was seen depends on the method and setting. In cells and extracts the contact can be indirect. Some results given as binding are weak or reduced against the parent protein; the word gives no strength. Tags and fused reporters may be left off the sequences shown.

Key:
Test in all cases: pull-down; only the target purified
[1] = biological target: T1, GST-JCV LT-Ag (aa 1–688, full-length) (JC virus (JCV)) (UniProt P03072)
T1 sequence: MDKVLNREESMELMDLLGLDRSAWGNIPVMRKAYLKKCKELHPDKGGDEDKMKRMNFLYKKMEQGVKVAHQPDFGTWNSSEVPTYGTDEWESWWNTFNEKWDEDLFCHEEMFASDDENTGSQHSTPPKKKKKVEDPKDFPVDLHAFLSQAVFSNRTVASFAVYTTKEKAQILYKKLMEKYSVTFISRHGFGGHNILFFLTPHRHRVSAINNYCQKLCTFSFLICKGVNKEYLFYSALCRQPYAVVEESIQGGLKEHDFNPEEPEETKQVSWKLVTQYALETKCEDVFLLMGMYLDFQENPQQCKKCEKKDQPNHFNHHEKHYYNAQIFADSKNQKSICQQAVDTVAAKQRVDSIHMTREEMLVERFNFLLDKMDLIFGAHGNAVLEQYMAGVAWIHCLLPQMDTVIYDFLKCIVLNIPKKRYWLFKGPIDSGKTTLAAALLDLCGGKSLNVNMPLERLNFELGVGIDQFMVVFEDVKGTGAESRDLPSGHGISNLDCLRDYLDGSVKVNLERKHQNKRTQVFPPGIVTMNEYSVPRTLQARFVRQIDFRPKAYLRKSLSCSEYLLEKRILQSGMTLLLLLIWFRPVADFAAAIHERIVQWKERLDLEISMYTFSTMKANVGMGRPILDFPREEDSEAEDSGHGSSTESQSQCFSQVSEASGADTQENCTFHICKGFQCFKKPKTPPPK

[2] = biological target: GST-JCV LT-Ag (1–411) (JC virus (JCV)) (UniProt P03072)
[3] = biological target: GST-JCV LT-Ag (1–82) (JC virus (JCV)) (UniProt P03072)
[4] = biological target: GST-JCV LT-Ag (1–265) (JC virus (JCV)) (UniProt P03072)

B1: FLAG-tagged Smc6 (structural maintenance of chromosomes protein 6) (protein, UniProt Q96SB8 1-1091)
chain: MAKRKEENFSSPKNAKRPRQEELEDFDKDGDEDECKGTTLTAAEVGIIESIHLKNFMCHSMLGPFKFGSNVNFVVGNNGSGKSAVLTALIVGLGGRAVATNRGSSLKGFVKDGQNSADISITLRNRGDDAFKASVYGNSILIQQHISIDGSRSYKLKSATGSVVSTRKEELIAILDHFNIQVDNPVSVLTQEMSKQFLQSKNEGDKYKFFMKATQLEQMKEDYSYIMETKERTKEQIHQGEERLTELKRQCVEKEERFQSIAGLSTMKTNLESLKHEMAWAVVNEIEKQLNAIRDNIKIGEDRAARLDRKMEEQQVRLNEAEQKYKDIQDKLEKISEETNARAPECMALKADVVAKKRAYNEAEVLYNRSLNEYKALKKDDEQLCKRIEELKKSTDQSLEPERLERQKKISWLKERVKAFQNQENSVNQEIEQFQQAIEKDKEEHGKIKREELDVKHALSYNQRQLKELKDSKTDRLKRFGPNVPALLEAIDDAYRQGHFTYKPVGPLGACIHLRDPELALAIESCLKGLLQAYCCHNHADERVLQALMKRFYLPGTSRPPIIVSEFRNEIYDVRHRAAYHPDFPTVLTALEIDNAVVANSLIDMRGIETVLLIKNNSVARAVMQSQKPPKNCREAFTADGDQVFAGRYYSSENTRPKFLSRDVDSEISDLENEVENKTAQILNLQQHLSALEKDIKHNEELLKRCQLHYKELKMKIRKNISEIRELENIEEHQSVDIATLEDEAQENKSKMKMVEEHMEQQKENMEHLKSLKIEAENKYDAIKFKINQLSELADPLKDELNLADSEVDNQKRGKRHYEEKQKEHLDTLNKKKRELDMKEKELEEKMSQARQICPERIEVEKSASILDKEINRLRQKIQAEHASHGDREEIMRQYQEARETYLDLDSKVRTLKKFIKLLGEIMEHRFKTYQQFRRCLTLRCKLYFDNLLSQRAYCGKMNFDHKNETLSISVQPGEGNKAAFNDMRALSGGERSFSTVCFILSLWSIAESPFRCLDEFDVYMDMVNRRIAMDLILKMADSQRFRQFILLTPQSMSSLPSSKLIRILRMSDPERGQTTLPFRPVTQEEDDDQR
For B1, the binding [1] was “binds”, the binding [2] was “binds” and the binding [3] was “no binding”. For the same binder, the binding [4] was “binds”.
